The record followed here is publication PMC12182300, “Biochemical impact of p300-mediated acetylation of replication protein A: Implications for DNA metabolic pathway choice” (The Journal of Biological Chemistry, 2025).

Chains of the proteins cited; added tags and fusions are not shown. Where a name states a change or a piece, a line headed by the entry shows the natural chain unless it says otherwise. A line that says so, or that is headed by a name, gives the form on record, which may keep a tag or linker. Residues count along the entry.
UniProt Q09472: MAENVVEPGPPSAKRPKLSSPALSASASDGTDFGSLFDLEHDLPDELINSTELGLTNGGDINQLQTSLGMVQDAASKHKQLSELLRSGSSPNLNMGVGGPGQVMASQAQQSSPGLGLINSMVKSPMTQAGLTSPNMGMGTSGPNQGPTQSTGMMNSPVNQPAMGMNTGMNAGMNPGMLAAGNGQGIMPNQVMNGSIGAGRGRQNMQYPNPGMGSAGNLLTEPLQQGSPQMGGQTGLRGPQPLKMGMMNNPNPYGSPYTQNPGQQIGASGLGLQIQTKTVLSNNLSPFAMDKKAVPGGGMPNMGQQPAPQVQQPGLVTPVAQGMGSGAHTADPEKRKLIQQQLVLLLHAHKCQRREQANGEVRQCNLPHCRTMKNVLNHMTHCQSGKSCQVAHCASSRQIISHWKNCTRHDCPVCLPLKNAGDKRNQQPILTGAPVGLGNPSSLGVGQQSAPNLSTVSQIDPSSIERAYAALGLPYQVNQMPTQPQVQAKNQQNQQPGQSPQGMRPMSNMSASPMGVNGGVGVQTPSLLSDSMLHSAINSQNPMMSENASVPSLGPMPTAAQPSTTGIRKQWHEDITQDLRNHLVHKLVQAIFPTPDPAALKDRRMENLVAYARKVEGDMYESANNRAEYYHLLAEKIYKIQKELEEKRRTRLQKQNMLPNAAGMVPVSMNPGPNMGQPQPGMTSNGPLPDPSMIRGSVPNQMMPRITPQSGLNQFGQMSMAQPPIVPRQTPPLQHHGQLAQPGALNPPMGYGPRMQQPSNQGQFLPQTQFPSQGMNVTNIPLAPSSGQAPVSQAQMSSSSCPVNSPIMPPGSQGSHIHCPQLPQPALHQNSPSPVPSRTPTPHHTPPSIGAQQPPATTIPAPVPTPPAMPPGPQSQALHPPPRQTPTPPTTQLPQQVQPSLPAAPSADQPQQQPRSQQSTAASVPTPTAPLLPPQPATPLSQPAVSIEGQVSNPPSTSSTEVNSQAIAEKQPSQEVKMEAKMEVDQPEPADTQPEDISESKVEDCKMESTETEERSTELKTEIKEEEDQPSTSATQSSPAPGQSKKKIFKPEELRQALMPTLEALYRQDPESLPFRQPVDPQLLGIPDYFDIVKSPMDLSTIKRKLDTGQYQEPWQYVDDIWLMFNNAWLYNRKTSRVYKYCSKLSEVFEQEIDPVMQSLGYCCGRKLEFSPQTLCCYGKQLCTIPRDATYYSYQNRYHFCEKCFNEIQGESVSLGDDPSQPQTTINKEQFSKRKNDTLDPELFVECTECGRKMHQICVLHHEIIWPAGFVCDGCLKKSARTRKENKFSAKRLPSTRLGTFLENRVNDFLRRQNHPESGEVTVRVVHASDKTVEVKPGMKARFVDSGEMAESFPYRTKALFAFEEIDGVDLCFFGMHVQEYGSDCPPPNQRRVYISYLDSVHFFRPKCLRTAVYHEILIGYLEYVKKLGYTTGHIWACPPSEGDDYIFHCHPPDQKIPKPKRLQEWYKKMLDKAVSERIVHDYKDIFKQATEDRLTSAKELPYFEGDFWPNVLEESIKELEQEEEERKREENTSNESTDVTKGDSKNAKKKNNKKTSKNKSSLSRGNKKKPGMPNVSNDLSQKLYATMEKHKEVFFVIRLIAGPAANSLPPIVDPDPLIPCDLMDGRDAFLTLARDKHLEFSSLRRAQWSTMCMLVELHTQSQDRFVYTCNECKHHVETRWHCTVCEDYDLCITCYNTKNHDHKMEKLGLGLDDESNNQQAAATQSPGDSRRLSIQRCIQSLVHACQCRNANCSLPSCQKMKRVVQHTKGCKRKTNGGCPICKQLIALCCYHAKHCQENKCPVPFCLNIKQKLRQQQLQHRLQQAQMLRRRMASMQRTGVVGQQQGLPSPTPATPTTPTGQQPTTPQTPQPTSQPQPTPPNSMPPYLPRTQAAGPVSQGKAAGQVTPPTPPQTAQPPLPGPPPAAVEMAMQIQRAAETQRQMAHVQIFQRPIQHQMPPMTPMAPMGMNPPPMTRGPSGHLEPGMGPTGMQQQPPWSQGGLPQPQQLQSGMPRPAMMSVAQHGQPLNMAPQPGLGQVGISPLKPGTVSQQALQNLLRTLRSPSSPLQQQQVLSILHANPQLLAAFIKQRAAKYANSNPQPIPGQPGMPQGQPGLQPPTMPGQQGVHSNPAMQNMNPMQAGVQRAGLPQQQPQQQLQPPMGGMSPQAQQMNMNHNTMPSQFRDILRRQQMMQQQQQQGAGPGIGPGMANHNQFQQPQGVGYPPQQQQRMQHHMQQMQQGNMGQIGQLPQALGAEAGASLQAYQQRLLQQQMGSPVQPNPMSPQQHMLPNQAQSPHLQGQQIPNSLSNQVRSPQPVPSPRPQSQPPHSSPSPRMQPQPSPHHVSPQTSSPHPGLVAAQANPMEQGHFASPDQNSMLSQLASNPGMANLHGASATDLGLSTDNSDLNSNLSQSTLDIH
UniProt P27694, 1-180: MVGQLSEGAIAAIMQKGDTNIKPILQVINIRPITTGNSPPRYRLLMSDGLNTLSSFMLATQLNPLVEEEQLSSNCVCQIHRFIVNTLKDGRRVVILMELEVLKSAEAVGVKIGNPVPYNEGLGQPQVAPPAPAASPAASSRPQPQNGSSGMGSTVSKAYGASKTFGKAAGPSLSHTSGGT
UniProt P27694, 1-441: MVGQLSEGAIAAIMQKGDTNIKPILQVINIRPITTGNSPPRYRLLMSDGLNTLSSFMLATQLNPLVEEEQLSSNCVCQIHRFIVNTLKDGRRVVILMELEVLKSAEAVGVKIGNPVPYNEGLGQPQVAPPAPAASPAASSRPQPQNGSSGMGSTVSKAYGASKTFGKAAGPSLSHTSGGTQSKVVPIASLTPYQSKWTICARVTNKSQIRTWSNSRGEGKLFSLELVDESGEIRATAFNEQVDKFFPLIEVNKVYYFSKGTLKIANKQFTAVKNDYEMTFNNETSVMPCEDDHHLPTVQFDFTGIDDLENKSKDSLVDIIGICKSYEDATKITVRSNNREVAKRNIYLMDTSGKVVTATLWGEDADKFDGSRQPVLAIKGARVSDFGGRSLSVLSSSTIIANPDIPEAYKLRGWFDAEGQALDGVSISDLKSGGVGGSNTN
Ac-RPA (p300-acetylated RPA heterotrimer) (Homo sapiens), one chain, as listed by the source, chain 2 of 3: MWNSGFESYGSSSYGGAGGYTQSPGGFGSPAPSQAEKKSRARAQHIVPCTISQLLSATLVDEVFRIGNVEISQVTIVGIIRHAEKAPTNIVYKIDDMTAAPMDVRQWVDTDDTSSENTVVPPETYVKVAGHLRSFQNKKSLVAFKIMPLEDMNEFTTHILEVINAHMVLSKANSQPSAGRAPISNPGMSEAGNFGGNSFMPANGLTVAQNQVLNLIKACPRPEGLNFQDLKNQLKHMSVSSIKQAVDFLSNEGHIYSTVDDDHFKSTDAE
Ac-RPA (p300-acetylated RPA heterotrimer) (Homo sapiens), one chain, as listed by the source, chain 3 of 3: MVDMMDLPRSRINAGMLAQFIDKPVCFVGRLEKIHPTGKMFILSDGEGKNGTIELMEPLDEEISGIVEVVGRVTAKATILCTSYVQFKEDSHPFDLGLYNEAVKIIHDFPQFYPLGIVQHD
Ac-RPA (p300-acetylated RPA heterotrimer) (Homo sapiens), one chain, as listed by the source, chain 1 of 3: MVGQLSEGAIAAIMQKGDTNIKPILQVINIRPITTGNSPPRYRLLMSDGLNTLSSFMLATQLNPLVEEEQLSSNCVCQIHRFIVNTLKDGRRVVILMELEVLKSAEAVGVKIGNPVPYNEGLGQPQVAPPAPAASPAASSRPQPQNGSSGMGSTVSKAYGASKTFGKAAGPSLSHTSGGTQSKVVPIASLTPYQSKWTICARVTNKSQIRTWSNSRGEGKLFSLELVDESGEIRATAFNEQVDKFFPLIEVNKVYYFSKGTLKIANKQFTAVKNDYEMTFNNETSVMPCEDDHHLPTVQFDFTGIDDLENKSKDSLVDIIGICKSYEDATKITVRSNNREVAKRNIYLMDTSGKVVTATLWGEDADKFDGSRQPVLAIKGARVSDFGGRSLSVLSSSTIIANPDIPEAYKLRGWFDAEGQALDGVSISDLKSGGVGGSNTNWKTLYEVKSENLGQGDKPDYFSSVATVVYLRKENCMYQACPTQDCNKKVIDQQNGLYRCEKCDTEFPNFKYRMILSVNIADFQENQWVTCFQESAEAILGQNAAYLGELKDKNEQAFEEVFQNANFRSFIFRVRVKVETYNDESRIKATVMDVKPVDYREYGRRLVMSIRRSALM

Data set [1] has as its system Ac-RPA (p300-acetylated RPA heterotrimer) (Homo sapiens). Kind of data set: BLI. The note with it: KD only in Fig. 4D, lower KD than Um-RPA, BLI: 1X HAT buffer, 31.25-250 nM RPA, recombinant protein, single-stranded DNA.
Data set [2] shares this test system. Description: EMSA. The note with it: EMSA: 50 mM Tris-HCl pH 8.0, 2 mM DTT, 30 mM NaCl, 0.1 mg/ml BSA, 5% glycerol, 10 min 37 °C, FEN1/RPA flap EMSA: same with 20 mM NaCl, 20 uM EDTA, recombinant protein.
In data set [3] the test system is Um-RPA (unmodified RPA heterotrimer) (Homo sapiens). Description: BLI. The note with it: BLI: 1X HAT buffer, 31.25-250 nM RPA, recombinant protein, single-stranded DNA.
For data set [4] the test system is unchanged. Kind of data set: EMSA. The following applies: EMSA: 50 mM Tris-HCl pH 8.0, 2 mM DTT, 30 mM NaCl, 0.1 mg/ml BSA, 5% glycerol, 10 min 37 °C, FEN1/RPA flap EMSA: same with 20 mM NaCl, 20 uM EDTA, recombinant protein.
Data set [5] deals with Ac-RPA (p300-acetylated RPA heterotrimer) (Homo sapiens). Description: competition EMSA. The note with it: EMSA: 50 mM Tris-HCl pH 8.0, 2 mM DTT, 30 mM NaCl, 0.1 mg/ml BSA, 5% glycerol, 10 min 37 °C, FEN1/RPA flap EMSA: same with 20 mM NaCl, 20 uM EDTA, recombinant protein, single-stranded DNA; for binding signal (% dissociated at 1000-fold competitor): Um-RPA fully displaced; for binding signal (% dissociated at 500-fold competitor): unlabeled 28 nt competitor.

The test system of data set [6] is Um-RPA (unmodified RPA heterotrimer) (Homo sapiens). Kind of data set: competition EMSA. The note with it: unlabeled 28 nt competitor, EMSA: 50 mM Tris-HCl pH 8.0, 2 mM DTT, 30 mM NaCl, 0.1 mg/ml BSA, 5% glycerol, 10 min 37 °C, FEN1/RPA flap EMSA: same with 20 mM NaCl, 20 uM EDTA, recombinant protein, single-stranded DNA.
Data set [7] addresses p300 (UniProt Q09472). Kind of data set: EMSA. The following applies: p300 alone; EMSA: 50 mM Tris-HCl pH 8.0, 2 mM DTT, 30 mM NaCl, 0.1 mg/ml BSA, 5% glycerol, 10 min 37 °C; FEN1/RPA flap EMSA: same with 20 mM NaCl, 20 uM EDTA; recombinant protein; label: 3'-biotin (BLI), 5'-TAMRA (EMSA); single-stranded DNA.
For data set [8], the target named is RPA1 A1/A2, acetylated (Homo sapiens) (UniProt P27694). Description: EMSA. The note with it: increased versus unmodified; EMSA: 50 mM Tris-HCl pH 8.0, 2 mM DTT, 30 mM NaCl, 0.1 mg/ml BSA, 5% glycerol, 10 min 37 °C; FEN1/RPA flap EMSA: same with 20 mM NaCl, 20 uM EDTA; recombinant protein; protein details: C-terminal His6; label: 5'-TAMRA; single-stranded DNA.
Data set [9] addresses RPA1 A1/A2, unmodified (Homo sapiens) (UniProt P27694). Kind of data set: EMSA. The note with it: less than acetylated form; EMSA: 50 mM Tris-HCl pH 8.0, 2 mM DTT, 30 mM NaCl, 0.1 mg/ml BSA, 5% glycerol, 10 min 37 °C; FEN1/RPA flap EMSA: same with 20 mM NaCl, 20 uM EDTA; recombinant protein; protein details: C-terminal His6; label: 5'-TAMRA; single-stranded DNA.
For data set [10], the target named is RPA1 DBD-F, acetylated (Homo sapiens) (UniProt P27694). Kind of data set: EMSA. The note with it: 25-150 nM protein, 25 nM DNA; EMSA: 50 mM Tris-HCl pH 8.0, 2 mM DTT, 30 mM NaCl, 0.1 mg/ml BSA, 5% glycerol, 10 min 37 °C; FEN1/RPA flap EMSA: same with 20 mM NaCl, 20 uM EDTA; recombinant protein; protein details: C-terminal His6; label: 5'-TAMRA; single-stranded DNA.

For data set [11], the target named is RPA1 FAB, acetylated (Homo sapiens) (UniProt P27694). Description: EMSA. The note with it: increased versus unmodified; EMSA: 50 mM Tris-HCl pH 8.0, 2 mM DTT, 30 mM NaCl, 0.1 mg/ml BSA, 5% glycerol, 10 min 37 °C; FEN1/RPA flap EMSA: same with 20 mM NaCl, 20 uM EDTA; recombinant protein; protein details: C-terminal His6; label: 5'-TAMRA; single-stranded DNA.
The target in data set [12] is RPA1 FAB, unmodified (Homo sapiens) (UniProt P27694). Kind of data set: EMSA. The note with it: less than acetylated form; EMSA: 50 mM Tris-HCl pH 8.0, 2 mM DTT, 30 mM NaCl, 0.1 mg/ml BSA, 5% glycerol, 10 min 37 °C; FEN1/RPA flap EMSA: same with 20 mM NaCl, 20 uM EDTA; recombinant protein; protein details: C-terminal His6; label: 5'-TAMRA; single-stranded DNA.
For data set [13], the system named is ΔF-RPA, acetylated (Homo sapiens). Kind of data set: EMSA. The following applies: increased versus unmodified; EMSA: 50 mM Tris-HCl pH 8.0, 2 mM DTT, 30 mM NaCl, 0.1 mg/ml BSA, 5% glycerol, 10 min 37 °C; FEN1/RPA flap EMSA: same with 20 mM NaCl, 20 uM EDTA; recombinant protein; protein details: C-terminal His6; label: 5'-TAMRA; single-stranded DNA.
Data set [14] concerns ΔF-RPA, unmodified (Homo sapiens). Description: EMSA. The note with it: less than acetylated form; EMSA: 50 mM Tris-HCl pH 8.0, 2 mM DTT, 30 mM NaCl, 0.1 mg/ml BSA, 5% glycerol, 10 min 37 °C; FEN1/RPA flap EMSA: same with 20 mM NaCl, 20 uM EDTA; recombinant protein; protein details: C-terminal His6; label: 5'-TAMRA; single-stranded DNA.
Setting [15] is: label: 3'-biotin (BLI), 5'-32P (EMSA).
Where [16] appears, read: with p300, no acetyl-CoA, higher KD than Ac-RPA.
Setting [17] is: 5-25 nM RPA, better than Um-RPA, single-stranded DNA.
Setting [18] is: 50 nM RPA alone, 5 nM DNA, label: IR700 on 5' end (Fig. 8), folded or branched DNA.
The mark [19] stands for this setting: 12.5 nM RPA, 1.25 nM DNA, 5% DMSO, room temperature, label: 32P, single-stranded DNA.

For at least one entry, the source does not settle the construct or the ends of the probe. For part of these data: Negatives hold for the conditions tested. For part of these data: Weaker means in comparison with the reference protein, sequence or condition of that experiment. For part of these data: At least one verdict rests on a figure or table, not on a statement of the authors. For part of these data: The direction of at least one scale is not stated here.

In the case of “TTCACGCCTGTTAGTTAATTCACTGGCCGTAC [LB.32 (32 nt)]”, the binding result in data set [1] (setting [15]) is recorded as “binds”; in [2] (5-25 nM RPA, better than Um-RPA, label: 3'-biotin (BLI), 5'-32P (EMSA), single-stranded DNA) it was “binds”.
With “TTCACGCCTGTTAGTTAATTCACT [LB.24 (24 nt)]”, the binding result in data set [1] was “binds”; in data set [3] (KD only in Fig. 4D, weaker than Ac-RPA), “binds more weakly”; in data set [3] (setting [16]) it was “binds more weakly”; in [2] (setting [17]), “binds”; in data set [4] (5-25 nM RPA, smeared, dynamic binding, single-stranded DNA) it was “binds more weakly”. Moreover, the binding signal (% dissociated at 1000-fold competitor) in data set [5] (100 nM RPA) is 77. Besides, the results for the binding signal (% dissociated at 500-fold competitor) in data set [5] (100 nM RPA) and in data set [6] (100 nM RPA) were 61 and 80, respectively.
Consider “GCCCAGTCACGTCGTTGTAAAACGGGTCGTGACTGGGAAAACCCTGGCG / TTAGTTAATTCACTGGCCGTCGTTTTACAACGACGTGACTGGG / CGCCAGGGTTTTCCCAGTCACGACCA [20 nt double flap (U26:D43:T49)]”, for which, in [2] (setting [18]), the binding signal (% bound (complete)) was 100. Moreover, in [4] (setting [18]), the binding signal came to 53 % bound.
As to “TTCACTATAACTACCTAATCTTCTGGCCGTACTGAACTACTGACA [LB.45 (45 nt)]”, the binding result in data set [1] (label: 3'-biotin (BLI), 5'-TAMRA (EMSA)) is “binds”; in data set [2] (better than Um-RPA, label: 3'-biotin (BLI), 5'-TAMRA (EMSA), single-stranded DNA), “binds”; in data set [4] (label: 3'-biotin (BLI), 5'-TAMRA (EMSA), single-stranded DNA), “binds”; in data set [7] it was “no binding”.
With “GGAGACCGAAGAGGAAAAGAAGGAGAGAGG [JJ.30 (30 nt)]”, the values for the binding signal in [2] (setting [19]) and in [4] (setting [19]) were 77 % bound and 17 % bound, respectively.
In the case of “TTCACGCCTGTTAGTTAATTCACTGGCC [LB.28 (28 nt)]”, the binding result in data set [1], in [3] (setting [16]) and in data set [2] (setting [17]) was “binds” each time. In addition, in [5] (50 nM RPA), the binding signal (% dissociated at 1000-fold competitor) amounted to 60. The results for the binding signal (% dissociated at 500-fold competitor) in data set [5] (50 nM RPA) and in data set [6] (50 nM RPA) were 33 and 80, respectively.
Consider TTCACGCCTGTTAGTTAATT [LB.20 (20 nt)], for which the binding result in data set [1] (setting [15]) was “binds”; in data set [3] (KD only in Fig. 4D, weaker than Ac-RPA, largest fold difference, label: 3'-biotin (BLI), 5'-32P (EMSA)), “binds more weakly”; in [3] (with p300, no acetyl-CoA, higher KD than Ac-RPA, label: 3'-biotin (BLI), 5'-32P (EMSA)) it was “binds more weakly”; in [2] (5-25 nM RPA, highest fold stimulation, label: 3'-biotin (BLI), 5'-32P (EMSA), single-stranded DNA), “binds”; in data set [4] (5-25 nM RPA, smeared, dynamic binding, label: 3'-biotin (BLI), 5'-32P (EMSA), single-stranded DNA) it was “binds more weakly”.
“TTCACGAGATTTACTTATTTCACTGCGGCT [LB.30 (30 nt)]”: the binding result in [8] was “binds”; in [9], “binds more weakly”; in data set [10] it was “no binding”; in data set [11] it was “binds”; in data set [12], “binds more weakly”; in data set [13], “binds”. In addition, the binding result in [14] is “binds more weakly”.
